This experiment in a line: qHTS Assay for Modulators of Lamin A Splicing. As to conditions: HeLa LMNA splicing GFP/RFP minigene ratio, 48 h. In short, it runs like this:
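Read-out is the ratio of GFP to DsRed2 object intensity, acquired by 488 nm laser-scanning cytometry on HeLa lamin A-EGFP minigene reporter cells. Compound incubation 48 hrs at 37 °C in Opti-MEM with 2% FBS; DMSO 0.5% final.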

[1] abbreviates: measured here: RFP viability control channel.
The mark [2] stands for this setting: measured here: GFP splicing reporter channel.

Each structure is given as a SMILES string. The list shows a part of the results. Shown are side measurements of this screen, not its main read-out; they come without a call. Compounds called inactive in the main read-out are mostly missing here. The note in brackets gives the kind of curve behind each potency; many fits are weak.

In the case of `Cn1c(SCc2c(F)cccc2Cl)nc2c(c1=O)SCC2`, the AC50 under setting [1] is 10 µM [rising, partial curve].

With `COc1ccc(CN(C(=O)c2ccco2)c2ccc(Br)cc2)cc1OC`, under setting [1], the half-maximal activity concentration (AC50) was 7.94 µM [rising, partial curve].

For `O=C(/C=C/Sc1ccccc1)c1ccc(Cl)cc1`, under setting [1], the AC50 is 35.5 µM [falling, single point].

Regarding `COC(=O)c1cc(CSc2nc3ccc(C)cc3[nH]2)oc1C`, the AC50 under setting [1] is 12.6 µM [rising, partial curve].

For `CCOc1ccccc1CN1CCc2nc(N3CCN(C)CC3)ncc2C1`, the AC50 was 14.1 µM [falling, single point] under setting [2] and 3.16 µM [falling, partial curve, poor fit] under setting [1].

On to `O=[N+]([O-])c1ccc(/C=C2\CCC(C3=CCCC3)=C2N2CCOCC2)cc1`, for which the AC50 runs as follows: under setting [2], 20 µM [rising, single point]; under setting [1], 35.5 µM [rising, single point].

On to `CCOc1cc(NC(=O)c2cccs2)c(OCC)cc1NC(=O)c1cccnc1`, for which the AC50 runs as follows: under setting [2], 1.58 µM [falling, partial curve]; under setting [1], 0.631 µM [falling, partial curve].

As for `Cc1cccc(-n2nnc(C(=O)NCc3ccccc3)c2N)c1`, the AC50 is 35.5 µM [rising, single point] under setting [2] and 15.8 µM [rising, single point] under setting [1].

Regarding `CCOc1ccc(-c2cc(C(=O)NC(C)c3ccccc3)c3ccccc3n2)cc1` (centres undefined), under setting [1], the AC50 was 0.00355 µM [falling, full curve, poor fit].

Regarding `CS(=O)(=O)N(CC(=O)NCc1ccco1)c1ccccc1Cl`, the half-maximal activity concentration (AC50) under setting [2] was 25.1 µM [rising, single point].

For `c1ccc2c(N3CCNCC3)nc(-c3ccoc3)nc2c1`, the AC50 reads like this: under setting [2], 14.1 µM [rising, single point]; under setting [1], 17.8 µM [rising, partial curve].

Take `CCOC(=O)[C@@H](N)CS`: the AC50 reads like this: under setting [2], 0.891 µM [falling, single point]; under setting [1], 4.47 µM [rising, full curve, poor fit].

Turning to `COc1cc(Cl)c(C)cc1NC(=O)C1CCN(c2nc3ccccc3n3cccc23)CC1`, the AC50 is, setting by setting: under setting [2], 22.4 µM [falling, partial curve, poor fit]; under setting [1], 22.4 µM [falling, partial curve].

As for `COc1ccc(-c2csc3ncn(-c4ccccc4OC)c(=O)c23)cc1OC`, the AC50 is 17.8 µM [falling, single point] under setting [2] and 12.6 µM [falling, single point] under setting [1].

As to `COc1ccc(OC)c(NS(=O)(=O)c2ccc3c(c2)C(C)(C)C(=O)N3C)c1`, the AC50 under setting [2] is 6.31 µM [rising, single point].

For `NC(=O)C1CCN(C(=O)c2ccc(NC(=O)c3nsc4ccccc34)cc2)CC1`, the AC50 under setting [1] is 5.62 µM [falling, single point].

Take `COc1ccccc1-n1c(SCC(=O)c2ccc(O)cc2O)nc2cc([N+](=O)[O-])ccc21`: the AC50 under setting [1] was 14.1 µM [rising, partial curve].

Regarding `O=C(Nc1ccc(CSc2ccccc2)cc1)c1ccc(CN2CCOCC2)cc1`, the AC50 is, setting by setting: under setting [2], 0.2 µM [rising, full curve, poor fit]; under setting [1], 1 µM [rising, full curve].

As to `Cn1c(-c2cc3c(C(F)(F)F)nn(C)c3s2)n[nH]c1=S`, under setting [1], the AC50 was 2 µM [rising, full curve, poor fit].

For the compound `Cc1cccc(NC(=O)C2CCCN(S(=O)(=O)c3c(C)nn(C)c3C)C2)n1` (centres undefined), under setting [1], the AC50 was 11.2 µM [rising, partial curve].

As for `Cn1c(CCN2CCOCC2)nc2cc(NC(=O)COc3ccc(Cl)cc3)ccc21`, the AC50 under setting [1] is 20 µM [rising, single point].

With `Cc1cc(C)nc(SC(C)CNS(=O)(=O)c2ccccc2)n1` (centres undefined), the AC50 under setting [1] is 35.5 µM [rising, partial curve, poor fit].

As for `C(=C1/CCCC2=C1Nc1ncnn1C2c1ccccc1)/c1ccccc1` (centres undefined), the AC50 under setting [2] is 3.16 µM [falling, partial curve] and the AC50 under setting [1] was 5.62 µM [falling, single point].

On to `COC(=O)c1cccc(Cn2c(Cl)c(/C=N/Nc3ccccc3C)sc2=O)c1`, for which the AC50 under setting [2] was 15.8 µM [rising, single point] and the AC50 under setting [1] is 15.8 µM [rising, single point].

Take `O=C(c1ccccc1)N1CCN(CCc2ccncc2)CC1`: the AC50 under setting [2] is 3.55 µM [rising, full curve].

As to `OC[C@H]1O[C@@H]2O[C@H]3[C@H](O)[C@@H](O)[C@@H](O[C@H]4[C@H](O)[C@@H](O)[C@@H](O[C@H]5[C@H](O)[C@@H](O)[C@@H](O[C@H]6[C@H](O)[C@@H](O)[C@@H](O[C@H]7[C@H](O)[C@@H](O)[C@@H](O[C@H]1[C@H](O)[C@H]2O)O[C@@H]7CO)O[C@@H]6CO)O[C@@H]5CO)O[C@@H]4CO)O[C@@H]3CO`, the AC50 under setting [1] was 1.26 µM [falling, partial curve, poor fit].

For the compound `COC(=O)c1sccc1N/N=C/c1ccc(OC)c(OC)c1OC`, the AC50 under setting [1] is 35.5 µM [rising, single point].

`CCN(CC)S(=O)(=O)c1ccc(O)c(NC(=O)c2ccc(N3CCOCC3)c([N+](=O)[O-])c2)c1`: the AC50 was 8.91 µM [rising, partial curve] under setting [2] and 7.08 µM [rising, partial curve] under setting [1].

As to `O=C(Nc1nnc(S(=O)(=O)N2CCCc3ccccc32)s1)c1cccc(Cl)c1`, the AC50 under setting [2] was 0.00355 µM [rising, full curve, poor fit].

In the case of `COc1cc(C(=O)NCC(=O)OCc2cc(=O)oc3c(C)c(C)ccc23)cc(OC)c1OC`, under setting [1], the AC50 was 0.631 µM [falling, full curve, poor fit].

Consider `COc1ccc(-c2[nH]ncc2CN2CCC(OCc3ccccc3)CC2)c(F)c1`, for which the AC50 is, setting by setting: under setting [2], 12.6 µM [falling, single point]; under setting [1], 22.4 µM [falling, single point].

`CCc1cccc(C)c1NS(=O)(=O)c1c(C(=O)N2CCC(C)CC2)c(C)n(C)c1C`: the concentration at half-maximal activity (AC50) by setting is: under setting [2], 5.62 µM [rising, single point]; under setting [1], 0.398 µM [falling, single point].

As for `CN(c1c[nH]c(=O)[nH]c1=O)C1CCCCC1`, the AC50 under setting [2] is 31.6 µM [rising, single point].

In the case of `COc1ccc(OC(C)C(=O)Nc2ccccc2F)cc1` (centres undefined), the AC50 under setting [2] was 0.631 µM [rising, full curve].

Consider `COc1cc(/C=N/N=C(N)N)ccc1OCc1ccccc1Cl`, for which the AC50 under setting [1] was 0.00447 µM [rising, full curve].

`C/C(=N\NC(=O)c1[nH]c2c([N+](=O)[O-])cc(C)cc2c1-c1ccccc1)c1cccnc1`: under setting [2], the AC50 is 3.55 µM [falling, single point].

Regarding `O=C(Cc1cccs1)NCCCc1ccccc1`, under setting [2], the AC50 was 35.5 µM [falling, single point].

`N#Cc1cnn2c(N)c(-c3ccc(Cl)cc3)cnc12`: the AC50 under setting [2] was 0.0708 µM [rising, full curve, poor fit].

For the compound `CCOc1ccc2[nH]c(=O)c(C(c3nnnn3Cc3ccco3)N3CCN(C)CC3)cc2c1` (centres undefined), the AC50 reads like this: under setting [2], 6.31 µM [falling, single point]; under setting [1], 17.8 µM [falling, partial curve, poor fit].

Take `Cc1ccc(Oc2nc(CN3CCOCC3)nc3sc4c(c23)CCC(C)C4)cc1` (centres undefined): the AC50 under setting [1] is 2 µM [rising, partial curve, poor fit].

In the case of `CCc1ccc(NC(=O)N2CCOc3ccc(Cl)cc32)cc1`, the AC50 under setting [2] is 0.708 µM [rising, full curve, poor fit].

For `COc1cc(C2C(C#N)=C(N)Oc3c2ccc2ccccc32)ccc1OCC(=O)Nc1ccccc1C` (centres undefined), the AC50 under setting [1] was 35.5 µM [falling, single point].

For `Cc1[nH]nc2c1C(c1ccc(-c3ccc(Cl)cc3)o1)C(C#N)=C(N)O2` (centres undefined), the concentration at half-maximal activity (AC50) reads like this: under setting [2], 7.08 µM [rising, partial curve, poor fit]; under setting [1], 11.2 µM [rising, partial curve].

On to `Nc1ccc(NC(=O)c2ccc(C(=O)Nc3ccc(N)cc3)cc2)cc1`, for which the AC50 by setting is: under setting [2], 2 µM [falling, partial curve, poor fit]; under setting [1], 35.5 µM [falling, single point].

In the case of `Nc1nnc(SCCCC(=O)c2ccc(Br)cc2)s1`, the AC50 under setting [1] is 0.141 µM [rising, full curve, poor fit].

Consider `CCCCN(CC)C(=O)CSc1nc2n[nH]c(C)c2c(=N)n1-c1cccc(Cl)c1`, for which the AC50 is, setting by setting: under setting [2], 0.00447 µM [falling, full curve, poor fit]; under setting [1], 0.00631 µM [falling, full curve].

For the compound `CC(C)(C)c1ccc(/C=C/C(=O)c2ccc(NC3=NCCCS3)cc2)cc1`, the concentration at half-maximal activity (AC50) is 11.2 µM [falling, partial curve, poor fit] under setting [2] and 35.5 µM [falling, single point] under setting [1].

In the case of `Cc1ccc(Cl)cc1N1CCN(S(=O)(=O)c2ccc3c(c2)oc(=O)n3C)CC1`, the AC50 was 3.55 µM [rising, partial curve, poor fit] under setting [2] and 14.1 µM [rising, partial curve] under setting [1].

Consider `O=C(CNC(=O)c1ccco1)NCC(=O)OCc1ccccc1Br`, for which the AC50 under setting [2] is 0.398 µM [falling, single point].

On to `O=C(NCc1ccc2c(c1)OCO2)c1ccc(CSCc2cccc(Cl)c2)o1`, for which the AC50 by setting is: under setting [2], 35.5 µM [rising, single point]; under setting [1], 22.4 µM [rising, single point].

For the compound `CN(c1ccc(C(=O)N2CCN(c3ccc(F)cc3)CC2)cc1)S(C)(=O)=O`, the AC50 under setting [1] is 3.16 µM [rising, single point].

`CCN(CC(=O)NC(C)C)C(=O)[C@@H](NC(=O)c1ccco1)C(C)C`: the AC50 under setting [1] was 3.98 µM [rising, full curve, poor fit].

For `CC(=O)Nc1ccc(/C=N/N2CCCCC2)cc1`, under setting [1], the AC50 is 0.0794 µM [falling, full curve, poor fit].

In general, AC50 refers to the midpoint of the concentration-response curve, whichever way the signal moves.

These data come from PubChem BioAssay AID1487 (National Center for Advancing Translational Sciences (NCATS), 2009).
